Results deposited as PubChem BioAssay AID743454 (Peter MacCallum Cancer Centre, 2014).

Test: 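Search for knock-downs that restore vorinostat killing in resistant colon cancer cells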 (primary screen)
Cell system: human HCT116-VR colon cancer cells, selected for vorinostat resistance
Reagents: siRNA pool against human genes, 40 nM siRNA pool
Duration: vorinostat for 24 h, read-out about 72 h after transfection
Treatment: vorinostat at 2.5 µM final
Measurement: 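Cell viability by CellTiter-Fluor and caspase 3/7 activity by luminescence, each scaled to mock wells per plate, duplicates averaged, then robust z-scored over all plates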
Direction: viability robust z-score: higher = more viable cells than screen typical; caspase robust z-score: higher = more caspase 3/7 activity than screen typical
Rule for the call: 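a knock-down is a hit when classed RV1 or RV2 for lowered viability, or CA1 or CA2 for caspase activation; those lethal without drug were dropped; hits were retested singly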
Shown is an unselected part of about 18,000 deposited reagents. Over the whole deposit, 450 (2.5%) were called active. 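Single biological run; no consistent viability z cut-off exists, so the class columns, not z-scores, define the calls.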 Unmarked entries are inactive. No sequences are given here.

| Gene | viability hit class | caspase hit class | viability robust z-score | caspase robust z-score |
| --- | --- | --- | --- | --- |
| OTUB1 (OTU deubiquitinase, ubiquitin aldehyde binding 1) | no change | no change | -0.97 | 1.56 |
| LILRA5 (leukocyte immunoglobulin like receptor A5) | no change | no change | 0.76 | -0.75 |
| SLC13A2 | no change | no change | -1.85 | 4.63 |
| BCAM (basal cell adhesion molecule (Lutheran blood group)) | no change | no change | 1.08 | -0.41 |
| RNF14 (ring finger protein 14) | no change | no change | 0.36 | -0.3 |
| DNMT1 (DNA methyltransferase 1) | no change | no change | -0.08 | 3.1 |
| SULT1C3 (sulfotransferase family 1C member 3) | no change | no change | -0.53 | -0.94 |
| PPHLN1 (periphilin 1) | no change | no change | 0.48 | -0.35 |
| CHST3 (carbohydrate sulfotransferase 3) | no change | no change | -1.65 | -0.54 |
| SYT3 (synaptotagmin 3) | no change | no change | -1.52 | -0.32 |
| VIM (vimentin) | no change | no change | -0.21 | 0.97 |
| LHFPL2 (LHFPL tetraspan subfamily member 2) | no change | no change | 0.39 | -0.58 |
| ACOT7 (acyl-CoA thioesterase 7) | no change | no change | -0.99 | 0.17 |
| MAGT1 (magnesium transporter 1) | no change | no change | -0.56 | -0.74 |
| SIAH2 (siah E3 ubiquitin protein ligase 2) | RV2 (reduced viability) (active) | CA2 (caspase activation) | -2.92 | 10.9 |
| KDM5A (lysine demethylase 5A) | no change | no change | -0.65 | -0.52 |
| KAT7 (lysine acetyltransferase 7) | no change | no change | -0.7 | -0.24 |
| XRCC4 (X-ray repair cross complementing 4) | no change | no change | 1.11 | -0.32 |
| LIPI (lipase I) | no change | no change | 0.27 | -0.48 |
| UBE2D1 (ubiquitin conjugating enzyme E2 D1) | no change | no change | 0.14 | -0.99 |
| PFKFB4 (6-phosphofructo-2-kinase/fructose-2,6-biphosphatase 4) | no change | no change | -0.47 | 2.58 |
| TPSG1 (tryptase gamma 1) | no change | no change | 0.21 | -0.97 |
| NOXA1 (NADPH oxidase activator 1) | no change | no change | -0.62 | -0.56 |
| ABCA3 (ATP binding cassette subfamily A member 3) | no change | no change | -0.28 | -0.12 |
| EEF2KMT (eukaryotic elongation factor 2 lysine methyltransferase) | no change | no change | -1.56 | 4.03 |
| COL18A1 (collagen type XVIII alpha 1 chain) | no change | no change | -0.21 | -0.06 |
| TRIM28 (tripartite motif containing 28) | no change | no change | -1.68 | 4.56 |
| MX1 (MX dynamin like GTPase 1) | no change | no change | -0.27 | 0.45 |
| FTSJ1 (FtsJ RNA 2'-O-methyltransferase 1) | no change | no change | -0.26 | -1.45 |
| MZT1 (mitotic spindle organizing protein 1) | no change | no change | -1.74 | 0.06 |
| OR4D5 (olfactory receptor family 4 subfamily D member 5) | no change | no change | 1.77 | -0.13 |
| KRTAP10-8 (keratin associated protein 10-8) | no change | no change | 0.94 | -0.08 |
| PRMT5 (protein arginine methyltransferase 5) | no change | no change | 0.98 | -0.66 |
| FAF1 (Fas associated factor 1) | no change | no change | -0.6 | -1.08 |
| GPC6 (glypican 6) | no change | no change | -1.05 | 3.12 |
| MACROD1 (mono-ADP ribosylhydrolase 1) | no change | no change | 1.77 | -0.88 |
| GABRG1 (gamma-aminobutyric acid type A receptor subunit gamma1) | no change | no change | 0.2 | 1.76 |
| KLRA1P (killer cell lectin like receptor A1, pseudogene) | no change | no change | 0.16 | -0.48 |
| DSTN (destrin, actin depolymerizing factor) | no change | no change | -0.59 | 0.76 |
| MAGEA11 (MAGE family member A11) | no change | no change | 0.44 | 0.87 |
| ARSJ (arylsulfatase family member J) | no change | no change | -0.96 | 0.55 |
| SFT2D3 (SFT2 domain containing 3) | no change | no change | 1.14 | -0.85 |
| SGK2 (serum/glucocorticoid regulated kinase 2) | no change | no change | 0.92 | 1.52 |
| FARSA (phenylalanyl-tRNA synthetase subunit alpha) | no change | no change | 1.21 | -0.5 |
| SPATA2L (spermatogenesis associated 2 like) | no change | no change | -1.94 | 0 |
| OR8G2P (olfactory receptor family 8 subfamily G member 2 pseudogene) | no change | no change | 1.15 | 0.02 |
| KCNN3 (potassium calcium-activated channel subfamily N member 3) | no change | no change | -1.1 | 0.33 |
| MAMLD1 (mastermind like domain containing 1) | no change | no change | -0.32 | -0.58 |
| CCND2 (cyclin D2) | no change | no change | -2.51 | -0.31 |
| RAD51B (RAD51 paralog B) | no change | no change | -0.82 | 2.34 |
| KIF3B (kinesin family member 3B) | no change | no change | -0.13 | -1.15 |
| GPAA1 (glycosylphosphatidylinositol anchor attachment 1) | no change | no change | -1.57 | 1.01 |
| ZNF511 (zinc finger protein 511) | no change | no change | 0.19 | -0.3 |
| ZNF597 (zinc finger protein 597) | no change | no change | 0.18 | 0.8 |
| CCDC30 (coiled-coil domain containing 30) | no change | no change | -0.59 | -0.68 |
| EGFL6 (EGF like domain multiple 6) | RV2 (reduced viability) (active) | no change | -3.34 | 2.01 |
| MANBAL (mannosidase beta like) | no change | no change | 0.4 | 0.97 |
